Results taken from the supplement of paper PMC12823440, “Inhibitors supercharge kinase turnover through native proteolytic circuits” (Nature, 2025).
Counter-ions that a name gives are not always drawn. This is one part of the list. The calls rarely recur for the same compound in another form.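 Kinases, fused to nanoluciferase, were expressed in K562 cells; luminescence was measured every 4 h from 2 to 18 h as percent of control (DMSO = 100%, positive control = 0%). A time point is decreased if signal falls significantly (2 sigma). Hits were called by the authors by a rule that is not shown; the count of time points alone does not decide it.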

Protein sequences, listed by entry. Tags and fused reporters are not part of them. Lines headed by an entry give the natural chain unless they say otherwise; changes in a name come on top.
UniProt P42680: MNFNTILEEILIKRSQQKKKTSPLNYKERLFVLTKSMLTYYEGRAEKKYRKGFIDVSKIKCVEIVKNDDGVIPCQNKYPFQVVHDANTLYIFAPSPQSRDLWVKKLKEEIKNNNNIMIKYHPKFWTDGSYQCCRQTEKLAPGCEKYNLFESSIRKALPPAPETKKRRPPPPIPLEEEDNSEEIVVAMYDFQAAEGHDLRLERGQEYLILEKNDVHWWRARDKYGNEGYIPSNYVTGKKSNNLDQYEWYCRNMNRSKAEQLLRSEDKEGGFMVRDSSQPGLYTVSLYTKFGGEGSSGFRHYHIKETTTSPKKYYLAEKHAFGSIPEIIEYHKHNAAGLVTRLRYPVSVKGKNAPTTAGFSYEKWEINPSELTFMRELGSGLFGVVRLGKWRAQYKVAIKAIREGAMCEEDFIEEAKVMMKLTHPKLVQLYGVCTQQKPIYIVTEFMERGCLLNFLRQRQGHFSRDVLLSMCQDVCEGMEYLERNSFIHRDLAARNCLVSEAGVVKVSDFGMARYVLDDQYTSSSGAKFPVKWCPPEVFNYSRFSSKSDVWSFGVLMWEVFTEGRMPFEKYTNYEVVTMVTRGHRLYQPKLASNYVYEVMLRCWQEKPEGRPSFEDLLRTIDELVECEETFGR
UniProt P29597: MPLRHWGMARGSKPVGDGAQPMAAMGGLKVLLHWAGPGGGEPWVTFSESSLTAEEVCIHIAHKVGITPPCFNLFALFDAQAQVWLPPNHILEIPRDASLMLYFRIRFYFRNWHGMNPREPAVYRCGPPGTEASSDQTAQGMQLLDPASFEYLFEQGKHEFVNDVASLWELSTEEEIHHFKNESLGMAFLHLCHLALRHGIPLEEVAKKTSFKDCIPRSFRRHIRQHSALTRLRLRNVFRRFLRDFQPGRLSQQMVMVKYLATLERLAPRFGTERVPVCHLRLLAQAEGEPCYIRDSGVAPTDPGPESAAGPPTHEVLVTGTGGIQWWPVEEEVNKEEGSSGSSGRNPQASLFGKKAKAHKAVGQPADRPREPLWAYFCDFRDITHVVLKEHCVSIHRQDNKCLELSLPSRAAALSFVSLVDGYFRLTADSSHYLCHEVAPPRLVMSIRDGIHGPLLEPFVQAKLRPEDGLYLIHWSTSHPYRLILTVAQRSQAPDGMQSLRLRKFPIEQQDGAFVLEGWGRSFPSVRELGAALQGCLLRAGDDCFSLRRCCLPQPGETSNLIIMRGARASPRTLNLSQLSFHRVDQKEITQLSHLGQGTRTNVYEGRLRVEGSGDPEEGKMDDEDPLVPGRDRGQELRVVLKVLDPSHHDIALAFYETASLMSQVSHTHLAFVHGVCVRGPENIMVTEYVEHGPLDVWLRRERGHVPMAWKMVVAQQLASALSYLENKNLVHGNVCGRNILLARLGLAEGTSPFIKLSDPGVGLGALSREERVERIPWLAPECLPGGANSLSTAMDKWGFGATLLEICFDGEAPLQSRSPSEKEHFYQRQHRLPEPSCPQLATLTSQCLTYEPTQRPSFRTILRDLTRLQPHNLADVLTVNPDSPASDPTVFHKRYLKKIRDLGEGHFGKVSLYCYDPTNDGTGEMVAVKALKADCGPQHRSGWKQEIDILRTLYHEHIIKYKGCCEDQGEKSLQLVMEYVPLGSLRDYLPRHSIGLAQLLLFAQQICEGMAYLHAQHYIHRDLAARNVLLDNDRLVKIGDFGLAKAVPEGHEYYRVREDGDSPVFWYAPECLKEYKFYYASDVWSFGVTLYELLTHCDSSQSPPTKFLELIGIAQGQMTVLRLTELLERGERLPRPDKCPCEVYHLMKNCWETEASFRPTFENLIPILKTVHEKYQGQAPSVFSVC

What follows are compounds tested against TEC (UniProt P42680) (assay: kinase-Nluc reporter destabilization hit call (1 = scored as downregulated) (binary); higher = compound decreases kinase abundance). Conditions: K562; 2-18 h.

kinase-Nluc reporter destabilization hit call, inactive:
Brc1ccc(CSc2nc3ccccc3o2)cc1 [BMP signaling agonist sb4] (10 µM) 0
O=C1OC(/C=C/c2ccccc2)=NC/1=C\c1cccnc1 (10 µM) 0
O=C(NCCN1CCOCC1)Nc1nc2ccc(Sc3nnc4ccc(-c5ccc(F)cc5)nn34)cc2s1 (10 µM) 0
Cn1c(CNc2cccc(C(=O)NCc3ccccc3C(F)(F)F)c2)nnc1-c1ccncc1 (10 µM) 0
COc1cc2cc(Oc3ccc4ccc(=O)oc4c3)c(=O)oc2cc1O [Daphnoretin] (10 µM) 0
O=C(O)c1cc(N(Cc2ccccc2O)Cc2cc(O)ccc2O)ccc1O [Lavendustin A] (10 µM) 0
Cc1c(Cl)cccc1S(=O)(=O)Nc1nc(NCCc2ccccc2)nc2c1CN(Cc1ccccc1)CC2 (2.5 µM) 0
CO[C@H]1C[C@@H]2CC[C@@H](C)[C@@](O)(O2)C(=O)C(=O)N2CCCC[C@H]2C(=O)O[C@H]([C@H](C)C[C@@H]2CC[C@@H](OC(=O)C(C)(CO)CO)[C@H](OC)C2)CC(=O)[C@H](C)/C=C(\C)[C@@H](O)[C@@H](OC)C(=O)[C@H](C)C[C@H](C)/C=C/C=C/C=C/1C [Temsirolimus] (2.5 µM) 0
O=C1Nc2ccc(CN3C(=O)CSC3=O)cc2/C1=C/c1cc(CN2CCOCC2)c[nH]1 (10 µM) 0

What follows are compounds tested against TYK2 (UniProt P29597) in the same assay as above. Conditions: K562; 2-18 h.

kinase-Nluc reporter destabilization hit call, active:
NCC1CCC(CNc2nc(NCc3ccccc3OC(F)(F)F)ncc2[N+](=O)[O-])CC1 (configuration not stated) [PKC-theta inhibitor] (10 µM) 1

kinase-Nluc reporter destabilization hit call, inactive:
N#Cc1cnc2c(Cl)cc(NCc3cn(CCN4CCCCCC4)nn3)cc2c1Nc1ccc(F)c(Cl)c1 [Cot inhibitor-1] (10 µM) 0
Cc1cc(Nc2cc(N)ncn2)c(=O)n2c1C(=O)NC21CCCCC1 [Tomivosertib] (10 µM) 0
CC(Cc1ccc(O)c(O)c1)C(C)Cc1ccc(O)c(O)c1 (configuration not stated) [Nordihydroguaiaretic acid] (2.5 µM) 0
CNC(=O)c1ccc2c(C(=Nc3cccc(CN(C)C)c3)c3ccccc3)c(O)[nH]c2c1 [MEK inhibitor] (10 µM) 0
COC(=O)[C@H](CCSC)NC(=O)c1ccc(NC[C@@H](N)CS)cc1-c1ccccc1 [FTI-277 (hydrochloride)] (10 µM) 0
C=CC(=O)Nc1ccc(C(=O)Nc2[nH]nc3c2CN(C(=O)N[C@H](CN(C)C)c2ccccc2)C3(C)C)cc1 (10 µM) 0
CCN(CC)CCCC(C)Nc1nc(C)cc(Nc2ccc3nc(C)cc(N)c3c2)n1 (configuration not stated) (10 µM) 0
COc1cc(F)ccc1-c1ncnc(Nc2cccc(C[S@](C)(=N)=O)c2)n1 [Atuveciclib] (2.5 µM) 0
O=C(c1cccc(Cl)c1F)N1CCN(Cc2cccc(Nc3nccs3)n2)CC1 (2.5 µM) 0
N#Cc1ccc(-c2cnc3ccc(-c4ccc(C(=O)N5CCOCC5)cc4)cn23)cc1 (10 µM) 0
Cc1ccc(C(=O)NC2CC2)cc1-n1ncc(C(=O)c2cccc(C#N)c2)c1N [Acumapimod] (10 µM) 0
N#Cc1ccc(-c2cnc3[nH]cc(NC(=O)c4cccnc4)c3c2)cc1 (10 µM) 0
CC1(N)CCN(c2cccnc2NC(=O)c2nc(-c3ncccc3C(F)(F)F)cnc2N)CC1 [Darovasertib] (10 µM) 0
COc1cc(N2CCC(N3CCN(C)CC3)CC2)ccc1Nc1ncc(Cl)c(-c2c[nH]c3ccccc23)n1 (2.5 µM) 0
CN1CCN(c2ccc(Nc3ncc4cc(C#N)c(=O)n(C5CCCC5)c4n3)cc2)CC1 (10 µM) 0
CO[C@H]1CC[C@H](N2C(=O)CNc3ncc(-c4ccc(C(C)(C)O)nc4)nc32)CC1 (2.5 µM) 0
Cc1c(C(=O)Nc2ccc(Oc3ccnc4[nH]cc(-c5ccccc5)c34)c(F)c2)c(=O)n(-c2ccc(F)cc2)n1C (10 µM) 0
COc1ccc(Nc2ncc(C(F)(F)F)c(NC3CC3)n2)cc1OC (10 µM) 0
C[C@@H]1O[C@@H](Oc2cc(O)c3c(=O)c(O[C@@H]4O[C@@H](C)[C@H](O)[C@@H](O)[C@H]4O)c(-c4ccc(O)cc4)oc3c2)[C@H](O)[C@H](O)[C@H]1O [Kaempferitrin] (10 µM) 0
COC(=O)Nc1ccc(-c2nc(N3CCOCC3)c3cnn(C4CCN(Cc5cccnc5)CC4)c3n2)cc1 (10 µM) 0
CC(C)Oc1ccc(F)c(-c2cnc(N)c(C(=O)Nc3cnccc3N3CCC[C@@H](C(=O)O)C3)n2)c1 (2 µM) 0
O=Nc1c(-c2c(O)[nH]c3cc(Br)ccc23)[nH]c2ccccc12 [GSK 3 Inhibitor IX] (2.5 µM) 0
N[C@@H]1CCCN(c2c(/C=C3\SC(=O)NC3=O)cccc2-c2ccccc2)C1 (10 µM) 0
CCn1c(-c2nonc2N)nc2c(C#CC(C)(C)O)ncc(OC[C@H]3CCCNC3)c21 (10 µM) 0
CNC(=O)c1cc2c(Oc3ccc(NC(=O)C4(C(=O)Nc5ccc(F)cc5)CC4)cc3)ccnc2cc1OC (2.5 µM) 0
C=CC(=O)N1CC[C@@H](Oc2nc(Nc3ccc(N4CCC(N5CCN(C)CC5)CC4)cc3)c(C(N)=O)nc2CC)C1 [Naquotinib (mesylate)] (2.5 µM) 0
C=CC(=O)Nc1cc(Nc2nccc(-c3cn(C)c4ccccc34)n2)c(OC)cc1OCCN(C)C [Rezivertinib] (2.5 µM) 0
Oc1c(F)cc(-c2cnccc2-c2ccc(N3CCOCC3)cc2)cc1F (10 µM) 0
Brc1ccc(CSc2nc3ccccc3o2)cc1 [BMP signaling agonist sb4] (10 µM) 0
O=C1OC(/C=C/c2ccccc2)=NC/1=C\c1cccnc1 (10 µM) 0
O=C(NCCN1CCOCC1)Nc1nc2ccc(Sc3nnc4ccc(-c5ccc(F)cc5)nn34)cc2s1 (10 µM) 0
Cn1c(CNc2cccc(C(=O)NCc3ccccc3C(F)(F)F)c2)nnc1-c1ccncc1 (10 µM) 0
COc1cc2cc(Oc3ccc4ccc(=O)oc4c3)c(=O)oc2cc1O [Daphnoretin] (10 µM) 0
O=C(O)c1cc(N(Cc2ccccc2O)Cc2cc(O)ccc2O)ccc1O [Lavendustin A] (10 µM) 0
Cc1c(Cl)cccc1S(=O)(=O)Nc1nc(NCCc2ccccc2)nc2c1CN(Cc1ccccc1)CC2 (2.5 µM) 0
CO[C@H]1C[C@@H]2CC[C@@H](C)[C@@](O)(O2)C(=O)C(=O)N2CCCC[C@H]2C(=O)O[C@H]([C@H](C)C[C@@H]2CC[C@@H](OC(=O)C(C)(CO)CO)[C@H](OC)C2)CC(=O)[C@H](C)/C=C(\C)[C@@H](O)[C@@H](OC)C(=O)[C@H](C)C[C@H](C)/C=C/C=C/C=C/1C [Temsirolimus] (2.5 µM) 0
O=C1Nc2ccc(CN3C(=O)CSC3=O)cc2/C1=C/c1cc(CN2CCOCC2)c[nH]1 (10 µM) 0
